The record followed here is paper PMC10076289.

Chains of the proteins cited; added tags and fusions are not shown.
UniProt Q02078: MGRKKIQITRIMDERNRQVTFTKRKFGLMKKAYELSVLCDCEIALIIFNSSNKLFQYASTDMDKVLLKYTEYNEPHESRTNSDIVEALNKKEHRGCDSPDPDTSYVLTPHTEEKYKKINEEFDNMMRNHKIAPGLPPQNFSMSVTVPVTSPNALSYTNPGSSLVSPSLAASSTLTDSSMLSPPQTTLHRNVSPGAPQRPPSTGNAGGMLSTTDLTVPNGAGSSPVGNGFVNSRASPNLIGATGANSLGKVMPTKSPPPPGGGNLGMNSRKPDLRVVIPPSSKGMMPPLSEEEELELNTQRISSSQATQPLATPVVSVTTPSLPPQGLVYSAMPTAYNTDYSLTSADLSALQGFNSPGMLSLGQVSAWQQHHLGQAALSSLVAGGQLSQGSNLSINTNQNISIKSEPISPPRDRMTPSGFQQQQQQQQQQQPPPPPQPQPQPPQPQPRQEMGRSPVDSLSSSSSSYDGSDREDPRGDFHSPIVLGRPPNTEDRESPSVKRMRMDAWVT

To fix the notation:
B1: ALDOA (protein, UniProt P05065 1-364)
chain: MPHPYPALTPEQKKELADIAHRIVAPGKGILAADESTGSIAKRLQSIGTENTEENRRFYRQLLLTADDRVNPCIGGVILFHETLYQKADDGRPFPQVIKSKGGVVGIKVDKGVVPLAGTNGETTTQGLDGLSERCAQYKKDGADFAKWRCVLKIGEHTPSSLAIMENANVLARYASICQQNGIVPIVEPEILPDGDHDLKRCQYVTEKVLAAVYKALSDHHVYLEGTLLKPNMVTPGHACTQKFSNEEIAMATVTALRRTVPPAVPGVTFLSGGQSEEEASINLNAINKCPLLKPWALTFSYGRALQASALKAWGGKKENLKAAQEEYIKRALANSLACQGKYTPSGQSGAAASESLFISNHAY
B2: TMOD1 (protein, UniProt P70567 1-359)
chain: MSYRRELEKYRDLDEDEILGALTEEELRTLENELDELDPDNALLPAGLRQKDQTTKAPTGPFKREELLDHLEKQAKEFKDREDLVPYTGEKRGKIWVPKQKPMDPVLESVTLEPELEEALANASDAELCDIAAILGMHTLMSNQQYYQALGSSSIVNKEGLNSVIKPTQYKPVPDEEPNPTDVEETLERIKNNDPELEEVNLNNIRNIPIPTLKAYAESLKENSYVKKFSIVGTRSNDPVAFALAEMLKVNKVLKTLNVESNFISGAGILCLVEALPHNTSLVELKIDNQSQPLGNKVEMEIVNMLEKNTTLLKFGYHFTQQGPRLRASNAMMNNNDLVRKRRLADLTGPIIPKCRSGV
B3: PSMA5 (protein, UniProt P34064 1-241)
chain: MFLTRSEYDRGVNTFSPEGRLFQVEYAIEGHKLGSTAIGIQTSEGVCLAVEKRITSPLMEPSSIEKIVEIDAHIGCAMSGLIADAKTLIDKARVETQNHWFTYNETMTVESVTQAVSNLALQFGEEDADPGAMSRPFGVALLFGGVDEKGPQLFHMDPSGTFVQCDARAIGSASEGAQSSLQEVYHKSTTLKEAIKSSLIILKQVMEEKLNATNIELATVQPGQNFHMFTKEELEEVIKDI
B4: PSMA2 (protein, UniProt P17220 1-234)
chain: MAERGYSFSLTTFSPSGKLVQIEYALAAVAGGAPSVGIKAANGVVLATEKKQKSILYDERSVHKVEPITKHIGLVYSGMGPDYRVLVHRARKLAQQYYLVYQEPIPTAQLVQRVASVMQEYTQSGGVRPFGVSLLICGWNEGRPYLFQSDPSGAYFAWKATAMGKNYVNGKTFLEKRYNEDLELEDAIHTAILTLKESFEGQMTEDNIEVGICNEAGFRRLTPTEVRDYLAAIA
B5: PSMA4 (protein, UniProt P21670 1-261)
chain: MSRRYDSRTTIFSPEGRLYQVEYAMEAIGHAGTCLGILANDGVLLAAERRNIHKLLDEVFFSEKIYKLNEDMACSVAGITSDANVLTNELRLIAQRYLLQYQEPIPCEQLVTALCDIKQAYTQFGGKRPFGVSLLYIGWDKHYGFQLYQSDPSGNYGGWKATCIGNNSAAAVSMLKQDYKEGEMTLKSALALAVKVLNKTMDVSKLSAEKVEIATLTRENGKTVIRVLKQKEVEQLIKKHEEEEAKAEREKKEKEQREKDK

No constants are given. Whether binding was seen depends on the method and setting. In cells and extracts the contact can be indirect. A yes stands for co-enrichment or nearness to the bait. Other partners may have been found.

This assay deals with 3xFlag-MEF2A (UniProt Q02078). Put plainly: affinity purification with mass spectrometry; 3xFlag-MEF2A expressed in primary neonatal rat cardiomyocytes, captured on anti-Flag magnetic beads, eluted with 0.2% TFA in 20% acetonitrile (pH 1.9), trypsin digest, iTRAQ labelling, LC-MS/MS; 3 Flag-MEF2A and 3 non-transfected control IPs.
As to B1, the binding result is “binds”.
For B2, the binding entry is on record as “binds”.
The result for B3 reads “binds”; that for B4, “binds”.
The result for B5 reads “binds”.
